{"sequences": {"note": "By UniProt entry, the sequences of proteins in these tests, tags left out. Residues count along the entry.", "Str-GFP-NM1-(Q123.T) (Q9WTI7, residues 731-1063)": "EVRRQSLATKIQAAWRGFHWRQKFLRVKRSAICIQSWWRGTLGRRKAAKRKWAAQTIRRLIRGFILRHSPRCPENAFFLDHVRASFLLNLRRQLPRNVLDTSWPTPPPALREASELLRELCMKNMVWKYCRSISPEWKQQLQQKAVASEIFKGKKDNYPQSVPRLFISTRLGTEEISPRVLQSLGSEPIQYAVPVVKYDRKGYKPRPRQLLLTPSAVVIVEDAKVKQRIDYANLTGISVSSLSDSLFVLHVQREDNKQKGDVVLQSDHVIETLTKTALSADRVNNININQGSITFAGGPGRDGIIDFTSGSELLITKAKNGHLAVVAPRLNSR", "Str-IQ12-His (Q9WTI7, residues 731-789)": "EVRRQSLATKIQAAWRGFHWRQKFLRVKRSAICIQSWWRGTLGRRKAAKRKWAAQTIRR", "UniProt P08238": "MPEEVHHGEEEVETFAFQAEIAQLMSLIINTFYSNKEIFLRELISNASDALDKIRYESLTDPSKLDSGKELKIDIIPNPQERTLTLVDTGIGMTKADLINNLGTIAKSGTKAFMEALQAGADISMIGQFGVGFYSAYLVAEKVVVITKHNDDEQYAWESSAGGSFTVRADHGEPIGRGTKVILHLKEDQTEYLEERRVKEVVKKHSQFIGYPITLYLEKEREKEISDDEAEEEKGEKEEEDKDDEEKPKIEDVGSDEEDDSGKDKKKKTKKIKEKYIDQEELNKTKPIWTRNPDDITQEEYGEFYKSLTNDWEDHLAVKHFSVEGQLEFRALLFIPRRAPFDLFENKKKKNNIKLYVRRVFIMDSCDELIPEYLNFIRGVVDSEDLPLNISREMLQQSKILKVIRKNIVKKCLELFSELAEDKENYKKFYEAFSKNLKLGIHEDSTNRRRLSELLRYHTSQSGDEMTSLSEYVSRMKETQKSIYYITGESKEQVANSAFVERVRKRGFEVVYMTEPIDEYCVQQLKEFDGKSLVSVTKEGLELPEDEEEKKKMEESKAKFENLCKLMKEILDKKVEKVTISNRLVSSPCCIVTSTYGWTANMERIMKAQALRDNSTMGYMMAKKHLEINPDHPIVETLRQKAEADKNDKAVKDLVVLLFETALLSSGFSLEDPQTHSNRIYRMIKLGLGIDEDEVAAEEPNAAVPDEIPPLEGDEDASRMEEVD", "UniProt O00410": "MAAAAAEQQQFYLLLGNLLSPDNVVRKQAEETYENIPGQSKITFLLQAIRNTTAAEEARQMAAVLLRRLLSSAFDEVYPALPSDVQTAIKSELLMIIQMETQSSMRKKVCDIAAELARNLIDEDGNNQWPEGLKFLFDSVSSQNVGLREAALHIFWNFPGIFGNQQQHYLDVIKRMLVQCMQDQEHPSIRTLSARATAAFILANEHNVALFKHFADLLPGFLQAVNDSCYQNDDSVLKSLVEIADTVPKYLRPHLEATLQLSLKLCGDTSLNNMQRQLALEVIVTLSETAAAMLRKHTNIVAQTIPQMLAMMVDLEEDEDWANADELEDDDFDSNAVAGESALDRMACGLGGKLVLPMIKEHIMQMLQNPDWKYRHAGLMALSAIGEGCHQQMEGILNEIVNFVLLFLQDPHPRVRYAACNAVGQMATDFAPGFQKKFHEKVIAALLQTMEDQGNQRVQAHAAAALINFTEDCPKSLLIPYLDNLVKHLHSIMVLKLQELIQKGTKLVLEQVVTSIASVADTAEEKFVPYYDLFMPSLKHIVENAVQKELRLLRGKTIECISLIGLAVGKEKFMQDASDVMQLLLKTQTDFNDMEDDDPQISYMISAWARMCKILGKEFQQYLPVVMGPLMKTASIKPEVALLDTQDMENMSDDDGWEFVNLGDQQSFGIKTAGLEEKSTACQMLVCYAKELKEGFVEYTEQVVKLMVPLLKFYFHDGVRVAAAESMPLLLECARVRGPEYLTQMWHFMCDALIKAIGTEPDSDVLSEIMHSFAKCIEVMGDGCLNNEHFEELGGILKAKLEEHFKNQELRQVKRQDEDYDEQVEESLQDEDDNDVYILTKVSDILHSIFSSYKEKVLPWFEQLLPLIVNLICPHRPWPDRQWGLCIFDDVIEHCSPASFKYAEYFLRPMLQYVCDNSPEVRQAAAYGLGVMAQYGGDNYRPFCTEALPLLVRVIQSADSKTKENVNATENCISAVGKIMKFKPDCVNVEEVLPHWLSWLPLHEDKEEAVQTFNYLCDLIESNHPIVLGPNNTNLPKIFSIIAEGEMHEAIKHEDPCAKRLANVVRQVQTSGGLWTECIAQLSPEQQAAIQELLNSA", "UniProt Q14974": "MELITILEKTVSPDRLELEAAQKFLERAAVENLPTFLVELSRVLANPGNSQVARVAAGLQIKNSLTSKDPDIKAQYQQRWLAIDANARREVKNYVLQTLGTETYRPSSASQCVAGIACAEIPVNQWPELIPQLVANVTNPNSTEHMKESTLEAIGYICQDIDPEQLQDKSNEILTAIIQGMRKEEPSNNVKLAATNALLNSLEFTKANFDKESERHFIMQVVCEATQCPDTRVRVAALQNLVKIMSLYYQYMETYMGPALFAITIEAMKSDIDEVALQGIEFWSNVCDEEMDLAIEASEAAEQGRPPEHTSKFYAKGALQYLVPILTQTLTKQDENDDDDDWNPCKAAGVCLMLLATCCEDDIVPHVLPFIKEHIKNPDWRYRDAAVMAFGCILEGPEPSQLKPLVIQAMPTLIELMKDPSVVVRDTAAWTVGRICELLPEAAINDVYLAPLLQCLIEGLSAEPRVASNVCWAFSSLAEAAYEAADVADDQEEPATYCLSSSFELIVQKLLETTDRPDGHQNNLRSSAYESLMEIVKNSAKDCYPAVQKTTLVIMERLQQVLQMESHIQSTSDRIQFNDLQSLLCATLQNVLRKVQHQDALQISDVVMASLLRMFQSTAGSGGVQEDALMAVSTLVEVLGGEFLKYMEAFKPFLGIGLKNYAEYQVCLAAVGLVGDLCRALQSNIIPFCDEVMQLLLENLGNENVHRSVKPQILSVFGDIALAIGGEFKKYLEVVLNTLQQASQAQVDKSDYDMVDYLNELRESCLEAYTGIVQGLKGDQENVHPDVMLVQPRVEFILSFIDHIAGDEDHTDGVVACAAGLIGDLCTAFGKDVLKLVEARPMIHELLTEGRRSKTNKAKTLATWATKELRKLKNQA"}, "source": "paper PMC3266300", "key": {"[1]": {"biological_target": "Str-IQ12-His (mouse) (UniProt Q9WTI7)", "assay": "affinity purification with mass spectrometry; purified Str-IQ12-His added to digitonin extract of suspension HeLa cells (2 mg/ml; 50 mM HEPES pH 7.4, 150 mM NaCl, 75 mM potassium acetate, 5 mM magnesium acetate, 1 mM DTT), 3 h, captured on StrepTactin beads, eluted with 2 mM biotin; SimplyBlue-stained bands identified by MALDI peptide mass fingerprinting; only the target purified"}, "[2]": {"biological_target": "Str-GFP-NM1-(Q123.T) (mouse) (UniProt Q9WTI7)", "assay": "affinity purification with mass spectrometry; Str-GFP-NM1-(Q123.T) or Str-GFP expressed in HEK293T; digitonin extract (50 mM HEPES pH 7.4, 150 mM potassium acetate, 5 mM magnesium acetate, 1 mM DTT, 1 mg/ml digitonin), 4 h with StrepTactin resin, biotin elution; stained bands identified by mass spectrometry"}}, "note": "No constants are given. Whether binding was seen depends on the method and setting. In cells and extracts the contact can be indirect. These calls come from enrichment with a bait or labelling near it, and not all partners need be listed.", "data": [{"substance": "Heat shock protein 90 beta (from UniProt P08238 1-724)", "values": [{"measurement": "binding", "setting": "[1]", "value": "binds"}, {"measurement": "binding", "setting": "[2]", "value": "binds"}]}, {"substance": "importin 5 (from UniProt O00410 1-1097)", "values": [{"measurement": "binding", "setting": "[1]", "value": "binds"}, {"measurement": "binding", "setting": "[2]", "value": "binds"}]}, {"substance": "importin-β1 (from UniProt Q14974 1-876)", "values": [{"measurement": "binding", "setting": "[2]", "value": "binds"}]}]}
